Drawing on article PMC5233801, this text covers binding for eight substances.

In experiment [1] the target is T1, SPL2 fused to GAL4 DNA-binding domain (Arabidopsis thaliana) (UniProt Q9S840).
T1 sequence: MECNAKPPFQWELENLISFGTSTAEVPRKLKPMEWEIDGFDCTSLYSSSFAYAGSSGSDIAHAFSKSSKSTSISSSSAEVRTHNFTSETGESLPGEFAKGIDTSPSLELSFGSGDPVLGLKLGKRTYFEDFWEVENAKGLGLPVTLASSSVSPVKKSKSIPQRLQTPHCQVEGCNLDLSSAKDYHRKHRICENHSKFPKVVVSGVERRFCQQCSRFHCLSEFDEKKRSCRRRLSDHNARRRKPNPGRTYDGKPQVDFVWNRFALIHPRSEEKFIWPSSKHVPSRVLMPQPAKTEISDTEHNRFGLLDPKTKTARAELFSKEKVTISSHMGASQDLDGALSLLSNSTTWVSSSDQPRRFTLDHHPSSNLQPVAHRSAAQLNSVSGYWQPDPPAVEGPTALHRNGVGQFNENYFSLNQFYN
Kind of experiment: two-hybrid; yeast AH109; SPLs fused to GAL4 DNA-binding domain (pGBKT7), partners fused to GAL4 activation domain (pGADT7); SD-Leu-Trp-His or SD-Ade-Leu-Trp-His plates with 10 mM (SPL2, SPL3) or 15 mM (SPL9) 3-amino-1,2,4-triazole, 3-4 days at 30 °C.

In experiment [2] the target is T2, SPL3 fused to GAL4 DNA-binding domain (Arabidopsis thaliana) (UniProt P93015).
T2 sequence: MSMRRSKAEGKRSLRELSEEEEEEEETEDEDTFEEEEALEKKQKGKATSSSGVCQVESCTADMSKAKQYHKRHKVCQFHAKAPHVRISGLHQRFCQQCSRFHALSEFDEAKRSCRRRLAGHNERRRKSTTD
Described as above.

Experiment [3] addresses T3, SQUAMOSA PROMOTER BINDING PROTEIN-LIKE9 (SPL9) fused to GAL4 DNA-binding domain (Arabidopsis thaliana) (UniProt Q700W2).
T3 sequence: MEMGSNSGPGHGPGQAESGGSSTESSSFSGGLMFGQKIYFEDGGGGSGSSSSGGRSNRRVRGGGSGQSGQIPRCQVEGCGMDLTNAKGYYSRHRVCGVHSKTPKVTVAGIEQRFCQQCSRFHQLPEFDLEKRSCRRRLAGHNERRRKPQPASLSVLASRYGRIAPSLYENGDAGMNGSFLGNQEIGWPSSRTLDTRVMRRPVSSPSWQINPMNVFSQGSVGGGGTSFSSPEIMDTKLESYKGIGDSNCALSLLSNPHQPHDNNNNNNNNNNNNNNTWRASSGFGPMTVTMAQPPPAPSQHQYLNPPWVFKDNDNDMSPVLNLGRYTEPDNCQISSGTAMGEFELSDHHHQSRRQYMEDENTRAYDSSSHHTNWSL
The experiment is described as above.

In experiment [4] the target is T4, Recombinant HIS-SPL9 protein (Arabidopsis thaliana) (UniProt Q700W2).
T4 sequence: T3 sequence
As to the kind of experiment: pull-down; 80 μg recombinant HIS-SPL9 mixed with total tobacco leaf proteins containing JAZ3δN-HA or JAZ3δC-HA in 1 ml; HIS-SPL9 bound to Ni-NTA resin, 1 h at 4 °C, eluted with imidazole; anti-HA immunoblot; only the target purified. (In general: A western blot detects proteins with antibodies after separation by electrophoresis.)

These are yes or no findings as the source states them, for the method shown. For some assays here: Binding calls can cover weak binding; strength is not graded here. Tags and fused reporters may be left off the sequences shown. For some assays here: In cells and extracts the contact can be indirect.

On to JAZ1 in pGADT7 (Arabidopsis thaliana), for which the figures for the binding result in experiment [1], in experiment [2] and in experiment [3] were “binds”, “no binding” and “binds”, respectively. Turning to JAZ2 in pGADT7 (Arabidopsis thaliana), the binding entry in experiment [2] is recorded as “no binding”. Turning to “JAZ3δC (JAZ3 without the Jas motif-containing C-terminal) fused to GAL4 activation domain (Arabidopsis thaliana) (domain or fragment)”, the binding result in experiment [3] is reported as “binds”. As for “JAZ3δC-HA (Arabidopsis thaliana) (domain or fragment)”, the binding entry in experiment [4] was “binds”. Consider “JAZ3δN (JAZ3 without the ZIM domain-containing N-terminal) fused to GAL4 activation domain (Arabidopsis thaliana) (domain or fragment)”, for which, in experiment [3], the binding result was “no binding”. Regarding “JAZ3δN-HA (Arabidopsis thaliana) (domain or fragment)”, the binding result in experiment [4] was “no binding”. JAZ6 in pGADT7 (Arabidopsis thaliana): the binding result in experiment [2] was “no binding”; in experiment [3] it was “binds”.

Take JAZ12 in pGADT7 (Arabidopsis thaliana): the binding result in experiment [2] is listed as “no binding”.
